The values are deposited in ChEMBL (CHEMBL3988442, “University of Dundee, Small-Polar-MMV Screening Library” (2021)).

Mtb glucose medium: 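Growth of Mycobacterium tuberculosis over 3 days (7H9 medium with glucose and tyloxapol); the read-out is not stated. Concentration: 500 µM. The record gives no direction; compounds that gave an IC50 in retests scored well above the rest, so higher reads as more growth inhibition. Of about 18,000 compounds tested this way, about 1,400 (7.9%) reached 50% or more in at least one test.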
Mtb cholesterol medium: 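Phenotypic screen: M. tuberculosis growth, cholesterol and DPPC medium, 4 days; the read-out is not stated. Compounds at 500 µM. Direction is inferred from retests: higher values go with more growth inhibition. Of about 18,000 compounds tested this way, about 900 (5%) reached 50% or more in at least one test.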

Each number is a percent effect as filed. The record does not define 0% and 100%; most values in the screen are far below 50% and negative numbers occur (in some assays of this library far below -100). Compounds were drawn at random from those tested, without regard to their results.

SMILES | Mtb glucose medium | Mtb cholesterol medium
CC[C@H](C)[C@H](N)C(=O)NCCc1noc(CO)n1 | -5.338% | 16.82%
COc1c(N)c(C)nn1C | 13.86% | 36.83%
COc1cccc(CNC(=O)[C@H]2C[C@@H](O)CN2)c1OC | -0.4514% | 2.145%
Cc1ccn(Cc2cccnc2)c(=O)c1 | 2.225% | -5.785%
N#CC1(NC(=O)CN2CCC(O)CC2)CCCCC1 | 27.02% | 22.09%
CCN(CC(C)(C)O)C(=O)c1ccc(COC)cc1 | 23.78% | 28.72%
CCC(C)CS(=O)(=O)Nc1ccc(F)c(C(N)=O)c1 (stereo not shown) | 25.67% | 7.465%
CC(C)CC(NC(=O)c1ccc(Cl)cc1)C(N)=O (stereo not shown) | -14.83% | -24.25%
NC(CO)Cc1ccccn1 (stereo not shown) | -3.834% | -3.314%
O=C1OCc2cc(-n3cccc3)ccc21 | 21.39% | 25.38%
CCC(=O)N1CCC[C@H]1C(=O)N(C)Cc1nc(C)c[nH]1 | 1.075% | -11.6%
Nc1cccc(C(=O)N2CCCC(CCCO)C2)n1 (stereo not shown) | 39.67% | 0.2076%
Cc1nnc(CN)s1 | -10.87% | -10.65%
CC[C@@H](O)CN1CCN(c2cc(OC)ccn2)CC1 | 23% | 20.46%
COCC(C)OC(=O)c1scnc1C (stereo not shown) | -15.01% | -12.13%
CN1CCCN(c2cc([C@H]3C[C@@H](N)C3)ncn2)CC1 | -10.04% | -17.58%
CCN1CCN(C(=O)CSc2ccncc2)C(C)C1=O (stereo not shown) | 16.07% | 4.252%
COCCCN1CCC(CNc2nnc(C)o2)C1 (stereo not shown) | 1.511% | 6.571%
CC1CN(C(=O)[C@@H](N)Cc2ccccc2)CC(C)(C)O1 (stereo partly shown) | 9.876% | 0.5638%
O=C(NC1CCCC1)N1CCC2(CC1)OCCCC2O (stereo not shown) | 10.66% | 25.78%
Cc1ccc(C(=O)N2CCN(C)CC2)cn1 | 12.34% | -2.268%
Cn1ccc(C(=O)N2CCCC2c2ccc(F)cc2)n1 (stereo not shown) | 38.28% | 35.85%
CCn1c(CN(C)CC(F)(F)F)nnc1[C@H]1C[C@@H](N)C1 | 19.25% | -5.941%
O=S(=O)(NCCNc1ccccn1)c1cccnc1 | 3.618% | -45.4%
CC(C#N)N(C)S(=O)(=O)c1cccc2ncccc12 (stereo not shown) | 33.42% | 20.61%
Cn1nccc1CCC(=O)N[C@H]1CC[C@@H](N)CC1 | -3.16% | -4.588%
CN(C)S(=O)(=O)c1cccc(Cn2cccn2)c1 | 31.41% | 11.76%
Cn1cc(C(=O)NCC2CCCS2)ccc1=O (stereo not shown) | 11.44% | -4.367%
Cc1ccc(C(=O)N2CCC(NC(N)=O)CC2)cc1Cl | -10.77% | -7.113%
NC(=O)N1CCCC(C(=O)N2CCNC(=O)C2)C1 (stereo not shown) | 2.048% | -4.546%
COc1cccc(Cn2cc(F)ccc2=O)c1 | 12.51% | -1.889%
CN1C(=O)[C@H]2CN(Cc3cc(Cl)ccc3F)C[C@H]2C1=O | 0.6027% | 2.347%
CN(CCn1cccn1)C(=O)C1CC12CCNCC2 (stereo not shown) | 4.521% | 1.296%
NCCS(=O)(=O)N1CCc2ccccc21 | 77.9% | 70.73%
CNC(=O)CN(c1ccc(C(F)(F)F)cc1)S(C)(=O)=O | 12.59% | 2.569%
CCC(=O)NCC(=O)N(C)Cc1cccc(OC)c1 | 24.51% | 7.522%
CCNC(=O)CN1CCCC(CC)(CO)C1 (stereo not shown) | -7.605% | -2.277%
O=C(NCCOCCO)c1cn2ccsc2n1 | -6.742% | 3.684%
COCC(C)NS(=O)(=O)c1cc(F)cc(F)c1 (stereo not shown) | 35.67% | 16.23%
CC[C@@H](O)CN1CCC(NC(=O)C2CCC2)CC1 | 5.56% | -0.7328%
CC(N)c1ccc(S(C)(=O)=O)cc1 (stereo not shown) | 9.447% | -10.12%
CS(=O)(=O)NCCC(=O)Nc1cccc2c1CCCC2 | 4.091% | -10.66%
COc1ccccc1S(=O)(=O)Nc1cccnc1O | 25.13% | 11.04%
CNC(=O)CN(C)c1cnc2ccccc2n1 | 1.145% | -9.482%
O=C1c2ccccc2OCC1CN1CCOCC1 (stereo not shown) | 104.2% | 113.3%
CNCCCNCc1ccc2c(c1)n(C)c(=O)n2C | -4.842% | -7.675%
CC1(N)Cc2ccccc2C1 | 48.19% | 26.42%
Cc1cc(C(=O)Nc2cn(C)cc(Br)c2=O)[nH]n1 | -0.6717% | -4.663%
CC1CN=C(N2CCN(Cc3cscn3)CC2)S1 (stereo not shown) | 6.493% | 7.747%
COc1ccc(NC(=O)N(C)CCO)c(Br)c1 | 27.84% | 4.361%

5 of the entries, repeated:

{"smiles": "COc1c(N)c(C)nn1C", "Mtb glucose medium": 13.86, "Mtb cholesterol medium": 36.83}
{"smiles": "O=C(NC1CCCC1)N1CCC2(CC1)OCCCC2O", "stereo": "stereo not shown", "Mtb glucose medium": 10.66, "Mtb cholesterol medium": 25.78}
{"smiles": "COc1ccccc1S(=O)(=O)Nc1cccnc1O", "Mtb glucose medium": 25.13, "Mtb cholesterol medium": 11.04}
{"smiles": "CN1CCCN(c2cc([C@H]3C[C@@H](N)C3)ncn2)CC1", "Mtb glucose medium": -10.04, "Mtb cholesterol medium": -17.58}
{"smiles": "N#CC1(NC(=O)CN2CCC(O)CC2)CCCCC1", "Mtb glucose medium": 27.02, "Mtb cholesterol medium": 22.09}